Experimental data from article doi:10.1101/2022.09.21.508927.
No constants are given. Whether binding was seen depends on the method and setting. Some binding calls cover weakened binding; strength is not graded here.

How the values were obtained:
Experiment in all cases: two-hybrid
[1] = molecular target: PulL (Klebsiella oxytoca) (UniProt P15751)
[2] = molecular target: PulG (Klebsiella oxytoca) (UniProt P15746)
[3] = molecular target: PulM^ΔCC (Klebsiella oxytoca) (UniProt P15752)
[4] = molecular target: PulM (Klebsiella oxytoca) (UniProt P15752)

Substance | binding [1] | binding [2] | binding [3] | binding [4]
PulM (from UniProt P15752 1-161) | binds | binds | – | –
PulG (from UniProt P15746 1-140) | – | – | binds | binds
PulL (from UniProt P15751 1-398) | – | no binding | – | binds
PulMΔN (from UniProt P15752 1-161) | binds | – | – | –
PulL^ΔCC (from UniProt P15751 1-398) | – | no binding | – | –
PulM^ΔCC (from UniProt P15752 1-161) | – | binds | – | –
